Experimental findings from paper PMC8214149 are described below.

The chains behind the UniProt entries cited, without tags or fusion partners.
UniProt Q12495: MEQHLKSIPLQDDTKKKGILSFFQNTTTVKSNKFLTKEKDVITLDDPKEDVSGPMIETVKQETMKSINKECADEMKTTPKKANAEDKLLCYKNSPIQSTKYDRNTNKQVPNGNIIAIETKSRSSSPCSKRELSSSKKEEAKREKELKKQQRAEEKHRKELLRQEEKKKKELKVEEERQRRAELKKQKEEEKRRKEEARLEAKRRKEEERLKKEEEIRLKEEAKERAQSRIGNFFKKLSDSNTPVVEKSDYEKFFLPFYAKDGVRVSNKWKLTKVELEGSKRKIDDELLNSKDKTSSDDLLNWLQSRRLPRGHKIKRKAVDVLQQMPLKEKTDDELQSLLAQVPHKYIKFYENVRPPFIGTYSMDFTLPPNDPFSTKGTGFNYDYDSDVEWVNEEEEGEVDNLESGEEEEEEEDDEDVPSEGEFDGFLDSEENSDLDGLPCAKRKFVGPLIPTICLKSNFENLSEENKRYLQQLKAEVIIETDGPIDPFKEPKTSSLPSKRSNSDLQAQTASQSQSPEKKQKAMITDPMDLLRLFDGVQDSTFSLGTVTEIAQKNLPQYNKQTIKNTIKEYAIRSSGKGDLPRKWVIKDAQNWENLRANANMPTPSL

The target of experiment [1] is T1, Rpn2 (S. cerevisiae (endogenous in the yeast strain)) (UniProt P32565).
T1 sequence: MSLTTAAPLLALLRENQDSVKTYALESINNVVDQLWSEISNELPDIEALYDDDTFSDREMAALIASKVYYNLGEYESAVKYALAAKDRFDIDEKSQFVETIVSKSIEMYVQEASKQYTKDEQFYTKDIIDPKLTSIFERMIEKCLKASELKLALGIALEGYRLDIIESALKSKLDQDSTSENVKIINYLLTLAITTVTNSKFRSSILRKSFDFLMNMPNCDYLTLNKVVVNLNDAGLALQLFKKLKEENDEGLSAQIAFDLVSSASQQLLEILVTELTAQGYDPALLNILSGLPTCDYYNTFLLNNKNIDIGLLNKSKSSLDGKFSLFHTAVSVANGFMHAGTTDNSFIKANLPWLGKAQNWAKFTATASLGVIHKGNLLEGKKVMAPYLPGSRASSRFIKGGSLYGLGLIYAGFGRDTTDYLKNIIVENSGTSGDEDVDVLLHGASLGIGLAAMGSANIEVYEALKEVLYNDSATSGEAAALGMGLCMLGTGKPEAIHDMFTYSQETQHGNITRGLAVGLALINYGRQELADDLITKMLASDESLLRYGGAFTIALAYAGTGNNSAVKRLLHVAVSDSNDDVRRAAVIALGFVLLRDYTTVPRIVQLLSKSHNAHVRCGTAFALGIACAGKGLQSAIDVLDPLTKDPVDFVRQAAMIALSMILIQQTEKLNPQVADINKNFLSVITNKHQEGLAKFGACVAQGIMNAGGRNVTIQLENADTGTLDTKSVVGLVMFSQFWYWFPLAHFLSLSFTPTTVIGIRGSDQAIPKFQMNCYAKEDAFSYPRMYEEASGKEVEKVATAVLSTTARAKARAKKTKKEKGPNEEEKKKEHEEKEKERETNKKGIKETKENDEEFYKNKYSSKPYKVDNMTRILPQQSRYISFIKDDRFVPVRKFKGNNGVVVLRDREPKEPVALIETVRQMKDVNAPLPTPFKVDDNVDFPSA
Kind of experiment: cross-linking; DSSO (lysine-lysine) XL-MS of 100 μg affinity purified yeast 26S proteasome in PBS pH 7.4, 2.5 or 5 mM DSSO, 1 h 25 °C; LC-MSn; two biological replicates.

Experiment [2] concerns the target T1, Rpn2 (S. cerevisiae (endogenous in the yeast strain)). Kind of experiment: cross-linking; SDASO-L, -M and -S (NHS-diazirine) XL-MS of 100 μg affinity purified yeast 26S proteasome in PBS pH 7.4, 20 mM linker, 1 h 25 °C in the dark, UV 365 nm 30 min on ice; trypsin (SDASO-L also chymotrypsin) digests, LC-MSn; triplicates.

No constants are given. Whether binding was seen depends on the method and setting. Binding seen in cells or lysates may run through a third protein. Some entries that bind do so weakly or less than the wild type.

Rlf2 (from UniProt Q12495 1-606): the binding entry in experiment [1] and in experiment [2] was “binds” each time.
